Assay results reported in the supplement of paper PMC10849652.
This is one part of the list.

Sequences of proteins named here, by UniProt entry; tags and fusion partners are left off. A change or cut given only in a name is not applied to a line headed by its entry.
UniProt O60674: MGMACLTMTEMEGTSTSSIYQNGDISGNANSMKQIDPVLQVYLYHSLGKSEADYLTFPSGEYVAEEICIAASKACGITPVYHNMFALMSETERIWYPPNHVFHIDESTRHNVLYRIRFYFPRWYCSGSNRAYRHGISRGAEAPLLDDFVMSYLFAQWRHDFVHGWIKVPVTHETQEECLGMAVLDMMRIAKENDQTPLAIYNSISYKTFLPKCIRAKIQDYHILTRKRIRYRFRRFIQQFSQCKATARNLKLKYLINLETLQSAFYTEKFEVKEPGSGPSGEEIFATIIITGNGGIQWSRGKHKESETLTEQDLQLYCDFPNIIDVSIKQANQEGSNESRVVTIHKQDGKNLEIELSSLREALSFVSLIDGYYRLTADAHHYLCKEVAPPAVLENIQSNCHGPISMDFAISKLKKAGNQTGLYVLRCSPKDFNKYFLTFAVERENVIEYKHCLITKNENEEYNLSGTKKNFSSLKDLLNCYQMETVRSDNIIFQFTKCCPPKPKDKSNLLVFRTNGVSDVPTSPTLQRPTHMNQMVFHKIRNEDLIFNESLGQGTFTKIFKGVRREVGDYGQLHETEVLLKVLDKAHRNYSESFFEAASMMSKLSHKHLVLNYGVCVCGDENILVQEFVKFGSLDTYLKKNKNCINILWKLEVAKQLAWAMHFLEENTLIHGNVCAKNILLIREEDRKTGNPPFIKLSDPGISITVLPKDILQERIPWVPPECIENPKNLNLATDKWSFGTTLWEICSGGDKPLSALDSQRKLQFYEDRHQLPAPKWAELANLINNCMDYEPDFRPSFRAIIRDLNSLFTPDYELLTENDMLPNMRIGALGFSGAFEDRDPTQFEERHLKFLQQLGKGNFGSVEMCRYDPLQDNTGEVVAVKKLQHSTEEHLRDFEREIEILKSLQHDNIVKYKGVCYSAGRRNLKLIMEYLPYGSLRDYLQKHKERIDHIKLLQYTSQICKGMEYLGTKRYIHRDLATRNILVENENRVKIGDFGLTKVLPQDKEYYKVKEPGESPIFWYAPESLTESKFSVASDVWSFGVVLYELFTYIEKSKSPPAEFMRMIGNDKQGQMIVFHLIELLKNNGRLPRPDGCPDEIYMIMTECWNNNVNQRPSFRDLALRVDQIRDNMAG
UniProt Q9Y573: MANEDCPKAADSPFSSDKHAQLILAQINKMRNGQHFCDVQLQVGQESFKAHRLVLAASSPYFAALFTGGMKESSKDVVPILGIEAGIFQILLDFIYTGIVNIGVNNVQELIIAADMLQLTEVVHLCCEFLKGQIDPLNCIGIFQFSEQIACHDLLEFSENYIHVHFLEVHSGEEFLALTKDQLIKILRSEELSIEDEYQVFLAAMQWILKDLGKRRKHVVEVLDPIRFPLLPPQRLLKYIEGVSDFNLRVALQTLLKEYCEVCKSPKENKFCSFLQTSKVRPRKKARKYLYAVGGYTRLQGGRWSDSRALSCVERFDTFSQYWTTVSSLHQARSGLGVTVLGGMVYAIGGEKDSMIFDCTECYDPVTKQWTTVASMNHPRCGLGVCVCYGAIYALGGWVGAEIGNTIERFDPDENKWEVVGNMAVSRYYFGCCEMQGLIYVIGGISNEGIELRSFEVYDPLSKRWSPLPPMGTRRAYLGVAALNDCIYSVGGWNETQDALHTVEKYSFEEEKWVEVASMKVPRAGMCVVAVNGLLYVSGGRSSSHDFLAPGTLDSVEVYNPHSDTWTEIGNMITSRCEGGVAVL
UniProt Q96AZ6: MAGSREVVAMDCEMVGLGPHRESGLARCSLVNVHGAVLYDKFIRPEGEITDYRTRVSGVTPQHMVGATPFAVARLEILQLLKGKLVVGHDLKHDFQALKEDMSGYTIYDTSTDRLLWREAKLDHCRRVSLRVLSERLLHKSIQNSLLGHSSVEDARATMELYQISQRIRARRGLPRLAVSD
UniProt Q4G0X4: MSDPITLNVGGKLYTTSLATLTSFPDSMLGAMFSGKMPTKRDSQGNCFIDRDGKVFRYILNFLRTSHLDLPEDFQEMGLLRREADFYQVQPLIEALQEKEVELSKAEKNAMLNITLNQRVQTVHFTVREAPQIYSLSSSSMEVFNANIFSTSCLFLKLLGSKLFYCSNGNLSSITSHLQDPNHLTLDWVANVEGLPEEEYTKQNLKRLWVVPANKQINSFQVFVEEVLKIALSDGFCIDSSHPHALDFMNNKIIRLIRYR
UniProt Q86V97: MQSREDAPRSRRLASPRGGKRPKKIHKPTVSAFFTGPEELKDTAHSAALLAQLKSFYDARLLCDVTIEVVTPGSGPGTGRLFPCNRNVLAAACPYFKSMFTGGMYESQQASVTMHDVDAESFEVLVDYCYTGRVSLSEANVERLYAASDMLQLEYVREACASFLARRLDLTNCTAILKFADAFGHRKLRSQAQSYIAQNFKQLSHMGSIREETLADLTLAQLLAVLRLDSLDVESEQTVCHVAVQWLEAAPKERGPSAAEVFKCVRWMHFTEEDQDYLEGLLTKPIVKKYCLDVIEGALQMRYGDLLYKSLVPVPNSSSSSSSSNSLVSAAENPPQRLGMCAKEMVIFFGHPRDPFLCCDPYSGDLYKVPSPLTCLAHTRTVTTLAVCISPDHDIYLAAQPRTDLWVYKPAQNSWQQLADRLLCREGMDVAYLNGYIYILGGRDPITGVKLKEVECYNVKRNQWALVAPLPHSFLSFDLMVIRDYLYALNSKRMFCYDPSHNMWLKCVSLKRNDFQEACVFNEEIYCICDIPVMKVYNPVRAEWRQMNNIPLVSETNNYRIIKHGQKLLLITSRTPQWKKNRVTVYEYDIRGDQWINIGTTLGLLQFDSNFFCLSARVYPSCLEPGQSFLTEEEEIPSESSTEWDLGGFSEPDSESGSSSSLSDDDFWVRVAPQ
UniProt Q9H9L4: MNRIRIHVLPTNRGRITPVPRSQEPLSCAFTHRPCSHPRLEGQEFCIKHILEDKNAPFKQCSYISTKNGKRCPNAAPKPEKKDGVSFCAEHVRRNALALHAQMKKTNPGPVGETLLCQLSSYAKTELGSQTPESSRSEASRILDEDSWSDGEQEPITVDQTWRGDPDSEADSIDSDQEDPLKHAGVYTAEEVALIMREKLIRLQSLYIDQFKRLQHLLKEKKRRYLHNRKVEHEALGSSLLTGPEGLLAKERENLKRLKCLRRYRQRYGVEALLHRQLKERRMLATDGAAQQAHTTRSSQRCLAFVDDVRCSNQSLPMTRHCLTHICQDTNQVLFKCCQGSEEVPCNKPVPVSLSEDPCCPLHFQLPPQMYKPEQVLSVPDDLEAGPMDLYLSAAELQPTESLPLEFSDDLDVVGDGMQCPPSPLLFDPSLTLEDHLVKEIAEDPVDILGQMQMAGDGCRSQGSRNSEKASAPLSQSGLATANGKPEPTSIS
UniProt Q9H910: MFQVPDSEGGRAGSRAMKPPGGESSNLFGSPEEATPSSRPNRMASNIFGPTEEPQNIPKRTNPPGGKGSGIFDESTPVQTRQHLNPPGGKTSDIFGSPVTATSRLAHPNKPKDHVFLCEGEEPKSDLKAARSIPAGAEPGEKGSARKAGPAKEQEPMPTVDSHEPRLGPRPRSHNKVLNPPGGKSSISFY
UniProt Q96A47: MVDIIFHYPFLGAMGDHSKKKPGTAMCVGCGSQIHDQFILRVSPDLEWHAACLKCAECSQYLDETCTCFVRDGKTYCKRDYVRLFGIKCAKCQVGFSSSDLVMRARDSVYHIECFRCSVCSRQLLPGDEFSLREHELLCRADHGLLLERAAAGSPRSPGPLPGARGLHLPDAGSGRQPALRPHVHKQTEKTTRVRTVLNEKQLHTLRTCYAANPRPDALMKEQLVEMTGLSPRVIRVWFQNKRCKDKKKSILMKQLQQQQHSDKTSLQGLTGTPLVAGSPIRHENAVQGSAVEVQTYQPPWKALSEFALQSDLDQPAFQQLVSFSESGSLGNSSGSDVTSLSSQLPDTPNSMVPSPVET
UniProt P01591, whole entry, looked up: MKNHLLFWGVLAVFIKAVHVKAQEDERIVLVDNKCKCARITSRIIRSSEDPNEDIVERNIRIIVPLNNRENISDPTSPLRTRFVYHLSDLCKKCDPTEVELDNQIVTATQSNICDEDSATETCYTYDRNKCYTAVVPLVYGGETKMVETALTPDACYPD
UniProt Q5JSJ4, whole entry, looked up: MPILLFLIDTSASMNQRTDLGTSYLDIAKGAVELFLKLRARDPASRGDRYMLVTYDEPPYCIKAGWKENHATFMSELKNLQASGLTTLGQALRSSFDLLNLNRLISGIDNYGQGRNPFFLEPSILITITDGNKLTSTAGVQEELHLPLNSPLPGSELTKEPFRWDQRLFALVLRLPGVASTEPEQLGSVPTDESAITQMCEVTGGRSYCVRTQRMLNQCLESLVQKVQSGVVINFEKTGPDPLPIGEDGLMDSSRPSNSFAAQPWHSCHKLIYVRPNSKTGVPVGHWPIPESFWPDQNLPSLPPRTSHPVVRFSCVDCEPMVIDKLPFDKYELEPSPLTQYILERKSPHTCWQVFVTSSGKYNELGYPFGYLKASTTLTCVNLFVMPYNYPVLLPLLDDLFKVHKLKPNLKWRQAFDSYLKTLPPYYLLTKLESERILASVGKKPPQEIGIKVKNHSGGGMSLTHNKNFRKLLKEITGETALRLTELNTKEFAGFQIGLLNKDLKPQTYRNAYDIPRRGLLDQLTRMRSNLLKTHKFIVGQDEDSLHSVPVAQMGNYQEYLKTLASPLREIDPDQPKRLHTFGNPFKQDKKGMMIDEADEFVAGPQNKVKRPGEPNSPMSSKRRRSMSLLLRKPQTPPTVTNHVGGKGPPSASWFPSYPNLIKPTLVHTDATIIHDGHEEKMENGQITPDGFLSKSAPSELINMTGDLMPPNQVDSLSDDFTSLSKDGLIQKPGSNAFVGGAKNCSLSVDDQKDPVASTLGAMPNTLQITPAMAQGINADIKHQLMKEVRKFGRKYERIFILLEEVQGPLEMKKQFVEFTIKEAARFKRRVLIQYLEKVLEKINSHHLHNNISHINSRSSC
UniProt Q06033: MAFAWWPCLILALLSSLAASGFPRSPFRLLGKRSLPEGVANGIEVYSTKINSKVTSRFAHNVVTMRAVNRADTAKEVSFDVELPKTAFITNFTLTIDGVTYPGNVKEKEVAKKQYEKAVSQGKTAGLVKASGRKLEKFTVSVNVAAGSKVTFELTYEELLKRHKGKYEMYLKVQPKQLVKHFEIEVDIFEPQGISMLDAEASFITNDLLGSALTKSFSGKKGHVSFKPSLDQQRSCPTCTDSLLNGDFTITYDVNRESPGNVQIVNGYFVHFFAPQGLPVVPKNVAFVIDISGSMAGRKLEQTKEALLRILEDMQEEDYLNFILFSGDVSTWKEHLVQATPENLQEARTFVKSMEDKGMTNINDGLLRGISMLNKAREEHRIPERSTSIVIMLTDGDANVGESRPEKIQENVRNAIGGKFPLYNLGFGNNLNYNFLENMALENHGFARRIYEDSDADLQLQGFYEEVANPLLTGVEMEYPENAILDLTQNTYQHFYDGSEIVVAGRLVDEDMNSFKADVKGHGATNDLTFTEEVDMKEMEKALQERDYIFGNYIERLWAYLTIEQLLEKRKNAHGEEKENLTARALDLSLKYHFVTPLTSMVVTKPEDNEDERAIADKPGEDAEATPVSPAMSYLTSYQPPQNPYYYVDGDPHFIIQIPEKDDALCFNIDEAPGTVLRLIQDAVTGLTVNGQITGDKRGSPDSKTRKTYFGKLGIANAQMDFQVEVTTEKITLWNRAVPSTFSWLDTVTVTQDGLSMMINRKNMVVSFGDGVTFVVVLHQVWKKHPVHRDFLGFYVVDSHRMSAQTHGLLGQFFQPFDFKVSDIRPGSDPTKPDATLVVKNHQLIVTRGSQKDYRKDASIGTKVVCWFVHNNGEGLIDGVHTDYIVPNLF
UniProt Q13352: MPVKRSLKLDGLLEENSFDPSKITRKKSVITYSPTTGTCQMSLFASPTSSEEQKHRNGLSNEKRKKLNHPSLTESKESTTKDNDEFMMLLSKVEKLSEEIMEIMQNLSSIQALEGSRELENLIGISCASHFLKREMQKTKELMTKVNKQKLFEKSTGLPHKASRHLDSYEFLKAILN
UniProt Q8IWB1: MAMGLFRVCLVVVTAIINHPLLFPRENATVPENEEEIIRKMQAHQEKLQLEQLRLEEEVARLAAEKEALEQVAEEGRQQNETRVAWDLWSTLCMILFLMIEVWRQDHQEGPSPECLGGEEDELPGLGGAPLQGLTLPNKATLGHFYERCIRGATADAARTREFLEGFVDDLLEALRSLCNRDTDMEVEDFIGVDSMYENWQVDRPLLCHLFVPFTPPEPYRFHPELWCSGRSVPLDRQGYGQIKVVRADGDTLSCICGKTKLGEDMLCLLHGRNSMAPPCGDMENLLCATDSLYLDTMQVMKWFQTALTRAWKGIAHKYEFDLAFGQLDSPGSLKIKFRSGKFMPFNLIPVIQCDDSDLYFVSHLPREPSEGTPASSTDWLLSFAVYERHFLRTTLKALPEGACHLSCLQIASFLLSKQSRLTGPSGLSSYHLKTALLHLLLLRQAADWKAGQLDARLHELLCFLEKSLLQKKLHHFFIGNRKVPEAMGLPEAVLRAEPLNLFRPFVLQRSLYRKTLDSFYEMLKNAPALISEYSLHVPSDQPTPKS

Assays:
Assay in all cases: log2 fold change, soluble protein after heating vs DMSO (PISA); higher = thermal stabilisation; K562 lysate, 10 uM; active = over 0.2 and 3.5 SD of the protein, either way, in both replicates (recomputed)
[1] = compound: CS(=O)(=O)CCNCc1ccc(-c2ccc3ncnc(Nc4ccc(OCc5cccc(F)c5)c(Cl)c4)c3c2)o1 [lapatinib]
Method in brief: (§1)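 K562 pellets were dounce-homogenised in PBS pH 7.4 with 1 mM MgCl2, and the crude extract at 1 mg/mL protein was treated with 10 μM compound for 30 min. Aliquots were heated for 3 min across 48°C-58°C, pooled, and brought to 0.5% NP-40 at 4°C; soluble protein was the supernatant after 21,000xg for 90 min. Soluble protein was quantified by TMTpro 16plex LC-MS/MS with channel sums equalised, and reported as log2 fold change in thermal stability against DMSO controls, with values from duplicates.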

[2] = compound: C[C@H](Nc1ncnc2nc[nH]c12)c1cc2cccc(Cl)c2c(=O)n1-c1ccccc1 [duvelisib]
Method in brief: as §1

[3] = compound: C[C@H](C1=CC=C(C=C1)C(=O)NC2=C3C=CNC3=NC=C2)N
Method in brief: as §1

[4] = compound: Cc1cc(Nc2cc(CN3CCOCC3)c3nc(C)c(Cc4ccc(Cl)cc4F)n3n2)n[nH]1 [gandotinib]
Method in brief: as §1

[5] = compound: Cc1cccc(CC(=O)N2CCc3c2ccc(-c2cn(C)c4ncnc(N)c24)c3F)n1
Method in brief: as §1

[6] = compound: CS(=O)(=O)N1CCN(Cc2cc3nc(-c4cccc5[nH]ncc45)nc(N4CCOCC4)c3s2)CC1 [pictilisib]
Method in brief: as §1

[7] = compound: C[C@@H](Oc1cc(-c2cnn(C3CCNCC3)c2)cnc1N)c1c(Cl)ccc(F)c1Cl [crizotinib]
Method in brief: as §1

[8] = compound: Cc1ccc(-n2nc(C(C)(C)C)cc2NC(=O)Nc2ccc(OCCN3CCOCC3)c3ccccc23)cc1 [doramapimod]
Method in brief: as §1

[9] = compound: Cc1ccc(NC(=O)c2ccc(CN3CC[C@H](N(C)C)C3)c(C(F)(F)F)c2)cc1Nc1nccc(-c2cncnc2)n1 [bafetinib]
Method in brief: as §1

[10] = compound: Cc1cc(Nc2cc(N3CCN(C)CC3)nc(Sc3ccc(NC(=O)C4CC4)cc3)n2)n[nH]1 [tozasertib]
Method in brief: as §1

ITPR2 (UniProt Q14571)
log2 fold change [1]: inactive: -0.571
log2 fold change [2]: inactive: -0.004

JAK2 (UniProt O60674)
log2 fold change [3]: inactive: -0.007
log2 fold change [2]: inactive: -0.049
log2 fold change [4]: inactive: -0.075
log2 fold change [5]: inactive: 0.135

KAZN isoform 3 (UniProt Q674X7)
log2 fold change [6]: inactive: 0.01
log2 fold change [7]: inactive: 0.014
log2 fold change [3]: inactive: -0.008
log2 fold change [4]: inactive: 0.111
log2 fold change [8]: inactive: -0.04
log2 fold change [9]: inactive: -0.116
log2 fold change [5]: inactive: 0.012

IPP (UniProt Q9Y573)
log2 fold change [1]: inactive: 0.04
log2 fold change [3]: inactive: 0.067
log2 fold change [2]: inactive: -0.016
log2 fold change [4]: inactive: -0.172
log2 fold change [10]: inactive: 0.078
log2 fold change [5]: inactive: 0.074

ITM2B (UniProt Q9Y287)
log2 fold change [6]: inactive: -0.087
log2 fold change [7]: inactive: 0.005
log2 fold change [3]: inactive: -0.061
log2 fold change [2]: inactive: 0.033
log2 fold change [4]: inactive: -0.037
log2 fold change [8]: inactive: 0.007
log2 fold change [9]: inactive: -0.032
log2 fold change [5]: inactive: 0.138

ISG20 (UniProt Q96AZ6)
log2 fold change [6]: inactive: -0.187
log2 fold change [2]: inactive: -0.028
log2 fold change [9]: inactive: 0.094

ISG20L2 (UniProt Q9H9L3)
log2 fold change [1]: inactive: -0.019
log2 fold change [3]: inactive: 0.12
log2 fold change [2]: inactive: -0.013
log2 fold change [4]: inactive: 0.028
log2 fold change [10]: inactive: 0.125
log2 fold change [5]: inactive: -0.011

ITFG2 (UniProt H0YGR0)
log2 fold change [1]: inactive: -0.012
log2 fold change [2]: inactive: -0.054

KCTD21 (UniProt Q4G0X4)
log2 fold change [6]: inactive: 0.105
log2 fold change [7]: inactive: 0.013
log2 fold change [10]: inactive: 0.077
log2 fold change [8]: inactive: -0.013
log2 fold change [9]: inactive: -0.14

KBTBD6 (UniProt Q86V97)
log2 fold change [7]: inactive: -0.046
log2 fold change [3]: inactive: -0.049
log2 fold change [4]: inactive: -0.053
log2 fold change [8]: inactive: 0.127
log2 fold change [5]: inactive: 0.001

ITPR3 (UniProt Q14573)
log2 fold change [1]: inactive: -0.013
log2 fold change [7]: inactive: -0.288
log2 fold change [8]: inactive: -0.019

KANSL2 (UniProt Q9H9L4)
log2 fold change [7]: inactive: -0.011
log2 fold change [8]: inactive: -0.016

KCTD16 (UniProt Q68DU8)
log2 fold change [7]: inactive: -0.057
log2 fold change [8]: inactive: 0.046

IRF9 (UniProt Q00978)
log2 fold change [2]: inactive: 0

JPT2 isoform 2 (UniProt Q9H910)
log2 fold change [6]: inactive: 0.079
log2 fold change [3]: inactive: 0.064
log2 fold change [2]: inactive: -0.328
log2 fold change [4]: inactive: 0.065
log2 fold change [9]: inactive: -0.035
log2 fold change [5]: inactive: -0.012

ISL2 (UniProt Q96A47)
log2 fold change [6]: inactive: 0
log2 fold change [7]: inactive: 0.001
log2 fold change [3]: active: 0.609
log2 fold change [2]: inactive: 0.006
log2 fold change [4]: inactive: -0.104
log2 fold change [8]: inactive: -0.074
log2 fold change [9]: inactive: -0.055
log2 fold change [5]: inactive: -0.096

JCHAIN (UniProt P01591)
log2 fold change [7]: inactive: 1.2
log2 fold change [8]: inactive: -0.143

KANSL1 (UniProt Q7Z3B3)
log2 fold change [1]: inactive: 0.068
log2 fold change [3]: inactive: -0.043
log2 fold change [2]: inactive: -0.277
log2 fold change [4]: inactive: -0.107
log2 fold change [10]: inactive: 0.085
log2 fold change [5]: inactive: 0.088

INTS6L (UniProt Q5JSJ4)
log2 fold change [1]: inactive: -0.01
log2 fold change [3]: inactive: -0.114
log2 fold change [2]: inactive: 0.031
log2 fold change [4]: inactive: -0.164
log2 fold change [5]: inactive: -0.293

ITPKC (UniProt Q96DU7)
log2 fold change [6]: inactive: 0.041
log2 fold change [7]: inactive: -0.132
log2 fold change [3]: inactive: -0.052
log2 fold change [2]: inactive: 0.035
log2 fold change [4]: inactive: -0.206
log2 fold change [10]: inactive: 0.032
log2 fold change [8]: inactive: -0.056
log2 fold change [9]: inactive: -0.058
log2 fold change [5]: inactive: 0.09

KCNH2 (UniProt Q12809)
log2 fold change [7]: inactive: -0.19
log2 fold change [3]: inactive: 0.119
log2 fold change [4]: inactive: -0.148
log2 fold change [8]: inactive: 0.224
log2 fold change [5]: inactive: 0.013

ITIH3 (UniProt Q06033)
log2 fold change [6]: inactive: -0.053
log2 fold change [10]: inactive: 0.055
log2 fold change [9]: inactive: -0.068

KALRN (UniProt O60229)
log2 fold change [7]: inactive: -0.002
log2 fold change [3]: inactive: -0.127
log2 fold change [4]: inactive: 0.031
log2 fold change [8]: inactive: 0.013
log2 fold change [5]: inactive: 0.058

ITGB3BP isoform 5 (UniProt Q13352)
log2 fold change [7]: inactive: 0.124
log2 fold change [3]: inactive: 0.138
log2 fold change [4]: inactive: 0.054
log2 fold change [8]: inactive: 0.13
log2 fold change [5]: inactive: -0.133

ITPRIP (UniProt Q8IWB1)
log2 fold change [2]: inactive: 0.179
